Percent effect of library compounds

By UniProt entry, the sequences of proteins in these tests, tags left out. Residues count along the entry.
UniProt Q4DA54, 1-478: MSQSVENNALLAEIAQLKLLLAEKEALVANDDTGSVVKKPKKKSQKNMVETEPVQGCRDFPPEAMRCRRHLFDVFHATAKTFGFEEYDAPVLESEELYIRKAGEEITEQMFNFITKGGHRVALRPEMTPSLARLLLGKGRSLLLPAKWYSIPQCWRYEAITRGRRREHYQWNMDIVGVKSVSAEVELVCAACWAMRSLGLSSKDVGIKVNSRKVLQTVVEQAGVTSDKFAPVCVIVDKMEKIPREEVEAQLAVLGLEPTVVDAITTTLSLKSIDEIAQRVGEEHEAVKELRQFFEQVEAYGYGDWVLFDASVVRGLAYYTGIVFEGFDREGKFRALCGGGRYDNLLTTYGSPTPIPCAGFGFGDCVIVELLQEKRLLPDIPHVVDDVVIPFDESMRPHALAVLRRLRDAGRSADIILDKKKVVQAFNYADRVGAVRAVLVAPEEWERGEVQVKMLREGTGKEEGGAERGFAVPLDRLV
UniProt P9WNZ1, whole entry: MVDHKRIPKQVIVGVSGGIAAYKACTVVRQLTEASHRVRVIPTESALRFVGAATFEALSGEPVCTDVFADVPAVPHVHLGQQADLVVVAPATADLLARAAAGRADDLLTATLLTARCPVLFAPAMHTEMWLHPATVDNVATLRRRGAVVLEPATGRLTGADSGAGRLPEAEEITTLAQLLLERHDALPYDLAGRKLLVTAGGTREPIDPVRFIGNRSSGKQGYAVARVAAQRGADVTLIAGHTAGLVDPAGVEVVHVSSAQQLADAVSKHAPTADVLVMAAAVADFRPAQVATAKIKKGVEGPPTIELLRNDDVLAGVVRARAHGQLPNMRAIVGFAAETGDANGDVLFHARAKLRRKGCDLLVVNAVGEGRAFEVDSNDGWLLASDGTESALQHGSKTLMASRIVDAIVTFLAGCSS
UniProt A4I591, 1-473: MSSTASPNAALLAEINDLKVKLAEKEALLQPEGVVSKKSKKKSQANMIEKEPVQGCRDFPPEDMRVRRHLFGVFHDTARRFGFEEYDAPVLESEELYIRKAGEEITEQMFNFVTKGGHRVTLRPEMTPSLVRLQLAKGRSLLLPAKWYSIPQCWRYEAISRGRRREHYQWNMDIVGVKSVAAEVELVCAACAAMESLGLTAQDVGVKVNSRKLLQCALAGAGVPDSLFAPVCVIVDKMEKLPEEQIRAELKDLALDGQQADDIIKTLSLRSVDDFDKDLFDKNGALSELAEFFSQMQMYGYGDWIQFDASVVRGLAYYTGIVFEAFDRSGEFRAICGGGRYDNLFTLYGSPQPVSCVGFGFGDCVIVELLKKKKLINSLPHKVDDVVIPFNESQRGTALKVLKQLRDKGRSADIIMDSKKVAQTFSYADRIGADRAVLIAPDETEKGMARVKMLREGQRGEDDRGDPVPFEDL

TcHisRS: 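Histidine-tRNA ligase, Trypanosoma cruzi CL Brener (UniProt Q4DA54). Enzyme assay of histidyl-tRNA synthetase; the read-out is not stated. Tested at 30 µM. Direction is inferred from retests: higher values go with stronger inhibition. Size under these conditions: about 69,000 compounds, about 31 of them at 50% or above in at least one test.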
CoaBC: 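Enzyme assay of CoaBC with a phosphate dye (Biomol Green) read at 650 nm. Target: Coenzyme A biosynthesis protein CoaBC, Mycobacterium tuberculosis (UniProt P9WNZ1). Tested at 30 µM. Direction is inferred from only a few compounds that gave an IC50; most scored high, so higher reads as stronger inhibition. Most strong results did not repeat in a second test. About 67,000 compounds were tested under these conditions; 0.06% (about 40) showed 50% or more at least once.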
LiHisRS: 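Histidine-tRNA ligase, Leishmania infantum (UniProt A4I591). Enzyme assay of histidyl-tRNA synthetase; the read-out is not stated. Tested at 30 µM. Direction is inferred from retests: higher values go with stronger inhibition. The assay is labelled LdHisRS but filed under L. infantum. Of about 69,000 compounds tested this way, about 410 (0.6%) reached 50% or more in at least one test.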

Each number is a percent effect as filed. The controls that fix the scale are not given in the record; negative values are as filed. Compounds were drawn at random from those tested, without regard to their results. Two or more numbers in one place are separate tests of the same structure; such repeats can differ widely. A dash means the value is not listed here; it may have been measured.

| # | SMILES | TcHisRS | CoaBC | LiHisRS |
|---|---|---|---|---|
| 1 | `CN(C)CCN1CCN(C)C2(CCN(c3nccs3)CC2)C1=O` | 3.797 | - | -94.83 |
| 2 | `Cc1ccc(CNC(=O)NCc2nccn2C)c(OC(C)(C)C)c1` | 3.478 | 4.317 | 5 |
| 3 | `Cc1ccc(CN2CCC3(CC2)CC(CC(=O)NC(C)C)CO3)s1` (stereo not given) | 6.25 | 4.235 | 22.94 |
| 4 | `CN(C)Cc1cc(=O)n2c(n1)CN(CC1CC1)CCC2` | 3.448 | 7.128 | 5.263 |
| 5 | `O=C(c1ccccn1)N1CCC(c2nccn2Cc2ccncc2)CC1` | -2.513 | 7.117 | 13.6 |
| 6 | `CN(C)Cc1cnc(C2CCN(C(=O)c3cccc(Cl)c3)C2)[nH]1` (stereo not given) | 4.545 | -1.48 | 1.408 |
| 7 | `CCn1c(C)cc(C(=O)NCc2cccc(S(=O)(=O)NC)c2)c1C` | 7.027 | 6.838 | 11.97 |
| 8 | `CN(C)c1cc(CNC(=O)Nc2cccnc2N2CCCC2)ccn1` | 16.57 | 5.704 | 13.16 |
| 9 | `Cc1nn(C)c(N(C)C)c1CNCc1cccnc1N1CCOCC1` | 8.04 | 9.208 | 15.96 |
| 10 | `Cn1cc(CCCNS(=O)(=O)N2CCCC2c2ccco2)cn1` (stereo not given) | 3.784 | -5.556 | 13.68 |
| 11 | `CS(=O)(=O)NCc1cnc2n1CCN(Cc1cccnc1)CC2` | 4.386 | 5.055 | 20.97 |
| 12 | `COC(=O)c1ccc(Cn2cnc(C#N)n2)cc1` | -2.762 | 1.146 | 1.036 |
| 13 | `CN(Cc1ncnn1C)C(=O)c1ccccc1NCc1ccccc1` | -3.03 | 4.862 | 15.87 |
| 14 | `c1ncc(-c2cn(CCSc3cnn[nH]3)nn2)cn1` | 7.879 | 2.433 | 37.78 |
| 15 | `O=C(c1cnccn1)N1CCN(Cc2ccncc2)c2ncccc2C1` | 5.946 | 4.188 | 5.66 |
| 16 | `Cn1nc(C2CN(S(C)(=O)=O)C2)c2nccnc21` | 3.333 | -1.695 | 4.124 |
| 17 | `CC(C)CN1CCC2(C1)CN(c1ncccn1)C2` | 1.639 | -2.073 | 9.489 |
| 18 | `Cc1nsc(NC2CC(=O)N(C(C)(C)C)C2)n1` (stereo not given) | -0.6494 | 0.8464 | 12.9 |
| 19 | `O=S(=O)(CCCn1cncn1)Cc1ccc(F)cc1Cl` | 4.433 | 96.3 and 94.52 | 109.2 |
| 20 | `Cc1nc(CN2C[C@H]3C[C@H](C(=O)NCC4CC4)N(C)[C@H]3C2)cs1` | 4.327 | 2.824 | 19.27 |
| 21 | `CCOC(=O)[C@H]1[C@@H](O)C(=O)N(C)C12CCN(C(=O)c1ccccc1)CC2` | 2.312 | -0.8589 | 22.68 |
| 22 | `O=C(NCC(Cc1cccc(F)c1)N1CCCC1=O)c1ccc(=O)[nH]n1` (stereo not given) | 10.84 | -1.781 | 30.77 |
| 23 | `NC(=O)CCC1CCCN(c2ncnc3c2Cc2ccccc2OC3)C1` (stereo not given) | 3.865 | 0.8696 | 15.83 |
| 24 | `CCS(=O)(=O)NCC(=O)N(C1CC1)C1Cc2ccccc2C1` | 2.381 | -3.563 | 12.4 |
| 25 | `O=C(Nc1cccnc1-n1cc(Br)cn1)C1CCCC1` | -2.924 | 0 | 13.16 |
| 26 | `CN(C)[C@@H]1CN(Cc2ccccn2)C[C@H]1c1cn(C)c2ccccc12` | 4.215 | -0.9569 | 17.27 |
| 27 | `COc1ccc2c(ccn2CCC(=O)NCCCC(=O)O)c1` | -1.98 | 3.995 | 5.435 |
| 28 | `c1cncc(CN2CCO[C@H]3[C@H](OCCN4CCCC4)CC[C@@H]32)c1` | 4.762 | 3.083 | 1.389 |
| 29 | `CCN(Cc1ccc2c(c1)OCO2)C(=O)c1ccc(=O)n(C)c1` | 7.065 | -0.8264 | 10.67 |
| 30 | `Cc1nc(C)n(CC2CN(c3ncnc4[nH]ccc34)CCO2)n1` (stereo not given) | 0.3759 | 5.483 | 16.22 |
| 31 | `CCc1nnc(SCc2nonc2C)n1C` | 2.591 | 5.499 | 6.452 |
| 32 | `Cc1cc(NCCc2nc(C)cs2)nc(-c2cccnc2)n1` | 12.06 | 4.531 | 10.59 |
| 33 | `O=C(c1ccn(-c2cccc(F)c2)n1)N1CCCC(n2cccn2)C1` (stereo not given) | -1.887 | 10 | 8 |
| 34 | `COc1cc2nc3n(c(=O)c2cc1OC)CCN(C(=O)C(C)(C)C)CC3` | 7.692 | -2.427 | 13.04 |
| 35 | `COCc1cnc2n1CCN(Cc1cccnc1)C2C` (stereo not given) | -1.622 | -0.1269 | 7.547 |
| 36 | `COCCN1CC2(CCCN(C(=O)CCCc3cccs3)C2)CCC1=O` (stereo not given) | -2.186 | 19.8 | 24.66 |
| 37 | `Cn1ccnc1C1CCCN(C(=O)c2ccncc2F)C1` (stereo not given) | 11.11 | 6.397 | 18.09 |
| 38 | `CCn1nc(CC(C)C)cc1C(=O)NCCCN1CCOCC1` | 7.538 | 0.1203 | 8.989 |
| 39 | `COc1cccc(N2C(=O)CC3(CCNCC3)C2=O)c1` | 4.854 | 2.445 | 17.31 |
| 40 | `O=C(Cc1ccc(F)cc1)N1CCN(CC(O)c2ccccc2)CC1` (stereo not given) | 6.433 | 8.929 | 10.91 |
| 41 | `COCCN1CC2(CCOCC2)c2cc(NC(=O)C3CC=CC3)ccc21` | 20.99 | -1.485 | 45.95 |
| 42 | `O=C(O)c1cccnc1CN1CCCCC1CCc1cccs1` (stereo not given) | 6.468 | 1.975 | 11.19 |
| 43 | `CC(C)c1ccc(O)c(C(=O)NC2CCN(c3ncccn3)CC2)c1` | 6.863 | 8.931 | 16.67 |
| 44 | `CNc1nc2c(s1)C(c1c(Cl)cccc1Cl)CC(=O)N2` (stereo not given) | 31.52 | 5.263 | 74.29 |
| 45 | `CC(C)(C)c1ccc(=O)n(CN2CCCC(C(F)(F)F)C2)n1` (stereo not given) | 6.316 | -5.179 | -2.74 |
| 46 | `Cc1ccsc1C1CC(=O)Nc2c1cnn2C(C)C` (stereo not given) | -0.9901 | 4.479 | 18.48 |
| 47 | `Cn1cc(C(=O)N[C@@H]2CN(CC3CCOCC3)[C@@H]3CCCO[C@@H]32)cn1` | 1.961 | 9.772 | 20 |
| 48 | `Cc1nc2c(c(NC3CC3)n1)CCN(C(=O)CCc1cccnc1)CC2` | -3.636 | -1.533 | 2.597 |
| 49 | `Cc1ccccc1N1CCN(C(=O)CC(C)C)CC1` | 3.261 | -3.831 | 3.03 |
| 50 | `COc1cccc(C2SCC(=O)Nc3ccsc32)c1` (stereo not given) | 1.136 | 1.499 | 5 |
| 51 | `c1ccc2c(c1)CC(CNCc1ccncc1)(N1CCCCC1)C2` | 11.35 | 1.818 | 32.88 |
| 52 | `CCc1cccc(OC2CN(C(=O)[C@@H](N)[C@@H](C)O)C2)c1` | 8.021 | 13.91 | 14.14 |
| 53 | `OCCN(Cc1nc(-c2ccc3c(c2)OCO3)no1)Cc1cccs1` | 4.95 | 1.446 | 9.89 |
| 54 | `c1cncc(COCc2nnc3n2CCN(CC2CC2)C3)c1` | 11.76 | -2.28 | 25.71 |
| 55 | `CCCn1nc2c(cc1=O)CN(c1ncnc3sccc13)CC2` | 15 | 3.113 | 15.32 |
| 56 | `CNC(=O)[C@H]1C[C@@H]2CN(C(=O)Nc3ccc(F)cc3)C[C@H]1O2` | 2.174 | 0.3802 | 16.5 |
| 57 | `CN(CC(=O)Nc1nncs1)CC1CCCN1c1cccnn1` (stereo not given) | 5.172 | 0.7937 | -0.8929 |
| 58 | `COc1ccnc(N2C[C@@H]3CC[C@H](C2)N(CC2CCC2)C3=O)n1` | 0 | 3.576 | 19.35 |
| 59 | `COC(=O)COc1nc(CC(C)C)c2c(c1C#N)CCCC2` | 2.479 | -12.28 | 5.714 |
| 60 | `CCc1[nH]ncc1C(=O)N1CCCC(n2cccn2)C1` (stereo not given) | 0.3774 | 3.52 | 20.27 |
| 61 | `c1cncc(-c2noc(CN3CCOC(Cn4cccn4)C3)n2)c1` (stereo not given) | 6.509 | 12.29 | 19.64 |
| 62 | `CC1CN(c2ccc(NC(=O)Cn3cccn3)cc2)CCO1` (stereo not given) | 2.97 | -0.1211 | 18.48 |
| 63 | `O=C(c1ccccc1N1CCOCC1)N1CCCC1Cn1cccn1` (stereo not given) | 0.8403 | 6.695 | 11.57 |
| 64 | `Cc1cc(=O)[nH]c(-n2nc(-c3ccccc3)cc2N)n1` | -0.5291 | 0.5964 | 25.33 |
| 65 | `Cc1cc(C(=O)N2CCOC[C@H](Oc3cnccn3)C2)c(C(F)(F)F)o1` | 6.931 | 3.386 | 22.22 |
| 66 | `Cc1nc2c(c(NCCc3nc(C)c(Cl)s3)n1)CCNCC2` | -1.932 | 2.609 | 12.5 |
| 67 | `O=C(O)c1nc(SCc2ccccc2)ncc1Br` | 2 | -0.2421 | 6.522 |
| 68 | `CC(C)=CCN1C[C@H]2CC[C@@H]1CN(CCC(=O)NCc1ccco1)C2` | 7.317 | 4.893 | 23.73 |

4 of the entries, repeated:

| SMILES | TcHisRS | CoaBC | LiHisRS |
|---|---|---|---|
| `CCc1[nH]ncc1C(=O)N1CCCC(n2cccn2)C1` (stereo not given) | 0.3774 | 3.52 | 20.27 |
| `CC(C)c1ccc(O)c(C(=O)NC2CCN(c3ncccn3)CC2)c1` | 6.863 | 8.931 | 16.67 |
| `CCc1nnc(SCc2nonc2C)n1C` | 2.591 | 5.499 | 6.452 |
| `O=C(O)c1nc(SCc2ccccc2)ncc1Br` | 2 | -0.2421 | 6.522 |

The values are deposited in ChEMBL (CHEMBL3988442, “University of Dundee, Small-Polar-MMV Screening Library” (2021)).